The list shows a part of the results. The main result of the screen is listed elsewhere. These columns were measured beside it and carry no call. Most of these compounds were active or inconclusive in the main read-out, so they are no random draw. Potencies come from curve fits of mixed quality, noted in brackets.
Assay: qHTS Assay to Find Inhibitors of Chronic Active B-Cell Receptor Signaling
Conditions: ABC-DLBCL IkBa-CBG/CBR reporter, luminescence ratio (green luciferase fused to IkBa over red control in TMD8 lymphoma cells), 4 h
How it was run: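 Cell line TMD8 (human ABC DLBCL), stably expressing tet-inducible CBG68-IkBa fusion and CBR; IMDM/0.5% FBS; cpd up to 46 uM; dox induction, 4 h, 37C/5% CO2; dual luminescence; green/red ratio; MG132 control.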

[1] = measured here: CBR red luminescence, cell number
[2] = measured here: IkBa-CBG green luminescence

Compound | AC50 [1] | AC50 [2]
O=C(O)c1cc(-c2ccc(Cl)cc2)n(-c2cccc(Cl)c2)n1 | 10 µM [falling, partial curve, poor fit] | 
Cc1cccnc1NC(=O)c1c(O)c2ccccc2n(C)c1=O | 18.4 µM [falling, single point] | 
CC1CC(C)(C)OC(C[N+]2(C)CCCCC2)O1 (stereo not given) | 35.5 µM [rising, single point] | 
Cc1cc(NC(=O)c2ccco2)c(=O)n(Cc2cccc(C(F)(F)F)c2)c1 | 2.82 µM [falling, partial curve, poor fit] | 
Cc1cccc(NC(=S)Nc2ccccn2)c1C | 0.461 µM [rising, full curve, poor fit] | 
CNC(=S)N/N=C/c1c(C)cccc1Cl |  | 35.5 µM [falling, single point]
CNc1ccc(/C=C(\C#N)c2ccccn2)cc1[N+](=O)[O-] | 12.6 µM [rising, partial curve, poor fit] | 
C=CC[C@@H](CC(=O)N(CCO)Cc1ccccc1)C(=O)NC[C@@H](OC(=O)[C@@H](CC=C)Cc1ccc(F)cc1)c1ccccc1 | 23.1 µM [falling, partial curve] | 
CCOC(=O)NNC(=O)C12CC3CC(CC(C3)C1)C2 | 25.1 µM [falling, single point] | 
Fc1ccc(Cn2nnnc2CN2CCN(C3CCCC3)CC2)cc1 | 6.51 µM [rising, single point] | 
NNC(=O)CNC(=O)C12CC3CC(CC(C3)C1)C2 | 0.631 µM [rising, full curve, poor fit] | 
N#Cc1nc(-c2ccc(Cl)cc2)oc1NCc1ccco1 | 0.326 µM [rising, full curve, poor fit] | 
Nc1nc2ccccc2n1C(=O)c1ccco1 | 5.8 µM [falling, partial curve] | 4.11 µM [rising, partial curve, poor fit]
CCCCCCOC(=O)NCC(O)c1ccccc1 (stereo not given) | 12.6 µM [falling, partial curve, poor fit] | 
CCc1c(O)nc(SCC(=O)Nc2nc3ccccc3s2)n(-c2ccccc2)c1=O | 7.08 µM [falling, partial curve] | 
Cc1ccc(S(=O)(=O)Nc2cccc3ncccc23)s1 | 2 µM [rising, full curve] | 2.82 µM [falling, partial curve]
COCCN(C(=O)COC(=O)CSc1ccccc1)c1c(N)n(Cc2ccccc2)c(=O)[nH]c1=O | 0.164 µM [falling, full curve, poor fit] | 
Cc1ccc(COC(=O)CCc2nc3ccccc3c(=O)[nH]2)cc1 | 4.11 µM [rising, partial curve, poor fit] | 

Two compounds drawn at random from those above:
Compound | AC50 [1] | AC50 [2]
CCc1c(O)nc(SCC(=O)Nc2nc3ccccc3s2)n(-c2ccccc2)c1=O | 7.08 µM [falling, partial curve] | 
CCOC(=O)NNC(=O)C12CC3CC(CC(C3)C1)C2 | 25.1 µM [falling, single point] | 
